Measurements reported in PubChem BioAssay AID602196 (INSERM, 2012).
The whole screen tested about 23,000 reagents; this is an unselected part. 455 of all reagents (2%) were called active. 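Active includes both protection and sensitisation; some change values fall well beyond the stated -50 to +50 range.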 Further read-outs or replicates are left out here. Not stated in the record: the amount of reagent.

Aim: 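Knock-downs that protect lung cancer cells from cisplatin or sensitise them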
System: human A549 lung cancer cells
Reagent: siRNA pair against human genes
Duration: 48 h transfection before cisplatin; time from cisplatin to read-out not stated
Treatment: cisplatin at a dose killing half of control-siRNA cells; exact dose and duration not given
Read-out: 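Cisplatin cell death as a shift from the 50% death seen with control siRNA; siRNAs toxic or growth-blocking alone scored 0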
Reading the numbers: two-siRNA summed score (-2 to +2): higher = both siRNAs protect from cisplatin killing; -2 means both sensitise
Hit rule: 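siRNAs harmful alone (LDH or WST-1) get 0; others get +1 for less and -1 for more cisplatin killing; genes are active when the two siRNAs give the same sign, summing to ±2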
Calls: active = both siRNAs shift cisplatin killing the same way; inactive = no consistent shift, or siRNA harmful alone

gene	two-siRNA summed score (-2 to +2)	Call
OR52N5	0	inactive
ICOS	1	inactive
LOC389442	0	inactive
LOC389908 (retired record)	0	inactive
MAGED2	0	inactive
ZMYM2	1	inactive
FAM228B	0	inactive
ZCCHC24	0	inactive
GNB2	0	inactive
P2RX5	1	inactive
FZD1	0	inactive
LOC389655	1	inactive
SIRT7	0	inactive
ZNF140	0	inactive
FLJ37078	0	inactive
LOC391047	0	inactive
ANGPT2	0	inactive
LAMA2	0	inactive
MDM2	0	inactive
IFITM3P2	0	inactive
ZFYVE19	0	inactive
RPS6KA4	0	inactive
FAM168A	0	inactive

Reprinted from the listing (3 entries):
gene	two-siRNA summed score (-2 to +2)	Call
ICOS	1	inactive
LOC389442	0	inactive
LOC389908 (retired record)	0	inactive
